{"source": "patent US20260200999A1", "about": "“SYNTHETIC TRANSCRIPTION FACTORS” (ETH ZURICH, priority 2022, published 2026)", "assay_in_all_cases": "activity in cells", "key": {"[1]": {"biological_target": "T1, MTF (MTERF1 58-399::RelA 430-551) (Homo sapiens) (UniProt Q99551)", "T1 sequence": "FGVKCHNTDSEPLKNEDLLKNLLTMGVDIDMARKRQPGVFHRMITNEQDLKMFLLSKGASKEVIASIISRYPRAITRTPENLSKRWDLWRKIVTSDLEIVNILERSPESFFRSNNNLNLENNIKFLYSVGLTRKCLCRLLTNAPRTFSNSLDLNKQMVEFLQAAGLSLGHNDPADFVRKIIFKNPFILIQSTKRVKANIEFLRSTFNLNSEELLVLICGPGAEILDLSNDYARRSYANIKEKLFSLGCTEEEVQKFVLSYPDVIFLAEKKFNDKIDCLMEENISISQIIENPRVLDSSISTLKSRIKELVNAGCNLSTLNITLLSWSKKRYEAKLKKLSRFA", "settings": "protein in cells, protein details: RelA 430-551 TAD fusion"}, "[2]": {"biological_target": "T2, MTERF1 58-399::RelA 361-551 (Homo sapiens) (UniProt Q99551)", "T2 sequence": "T1 sequence", "settings": "stronger than RelA 430-551 fusion, HEK293; protein in cells; protein details: TAD fusion"}, "[3]": {"biological_target": "T3, MTERF1 58-399::VP64 (Homo sapiens) (UniProt Q99551)", "T3 sequence": "T1 sequence", "settings": "lower reporter expression than RelA 430-551 fusion, HEK293; protein in cells; protein details: VP64 fusion"}, "[4]": {"biological_target": "T4, MTERF1 58-399::RelA 342-551 (Homo sapiens) (UniProt Q99551)", "T4 sequence": "T1 sequence", "settings": "stronger than RelA 430-551 fusion, HEK293; protein in cells; protein details: TAD fusion"}, "[5]": {"settings": "mCerulean reporter, HeLa and HEK293"}}, "note": "For some of these results: Negatives hold for the conditions tested. Where a protein sequence is shown, tags need not be part of it. For some of these results: For at least one entry, the source does not settle the construct or the ends of the probe."}
{"sequence": "TAAGATGGCAGAGCCCGGTAATAAGGTGCGATTAAGATGGCAGAGCCCGGTAATAAGGTGCGATTAAGATGGCAGAGCCCGGTAATAAGGTGCGATTAAGATGGCAGAGCCCGGTAATAAGGTGCGATTAAGATGGCAGAGCCCGGTAAT (double strand) [5xRE, 10 bp spacing]", "values": [{"measurement": "activity on this sequence", "setting": "[1]; HeLa similar to 6 bp spacing, very little signal in HEK293", "value": "active"}]}
{"sequence": "TAAGATGGCAGAGCCCGGTAATTAAGATGGCAGAGCCCGGTAATGACTCATACTCTAGAGGGTATATAATGGGGGCC (double strand) [sense-2-0-8 promoter]", "values": [{"measurement": "activity on this sequence", "setting": "[1]; mCitrine, HEK293, as much expression as sense-5-9-8, none without MTF", "value": "active"}]}
{"sequence": "TAAGATGGCAGAGCCCGGTAATTGCGATTAAGATGGCAGAGCCCGGTAATTGCGATTAAGATGGCAGAGCCCGGTAAT (double strand) [3xRE, 6 bp spacing]", "values": [{"measurement": "activity on this sequence", "setting": "[1]; mCerulean reporter, HeLa and HEK293, signal rises with RE number in HEK293", "value": "active"}]}
{"sequence": "TAAGATGGCAGAGCCCGGTAATAGAGTGCGATAAGATGGCAGAGCCCGGTAATAGAGTGCGATAAGATGGCAGAGCCCGGTAATAGAGTGCGATAAGATGGCAGAGCCCGGTAATAGAGTGCGATAAGATGGCAGAGCCCGGTAATGACTCATACTCTAGAGGGTATATAATGGGGGCC (double strand) [sense-5-9-8 promoter]", "values": [{"measurement": "activity on this sequence", "setting": "[1]; mCitrine, HEK293, none without MTF", "value": "active"}]}
{"sequence": "TAAGATGGCAGAGCCCGGTAATTGCGATTAAGATGGCAGAGCCCGGTAATTGCGATTAAGATGGCAGAGCCCGGTAATTGCGATTAAGATGGCAGAGCCCGGTAATTGCGATTAAGATGGCAGAGCCCGGTAATTGCGATTAAGATGGCAGAGCCCGGTAATTGCGATTAAGATGGCAGAGCCCGGTAAT (double strand) [7xRE, 6 bp spacing]", "values": [{"measurement": "activity on this sequence", "setting": "[1]; [5]", "value": "active"}]}
{"sequence": "TAAGATGGCAGAGCCCGGTAATTGCGATTAAGATGGCAGAGCCCGGTAATTGCGATTAAGATGGCAGAGCCCGGTAATTGCGATTAAGATGGCAGAGCCCGGTAATTGCGATTAAGATGGCAGAGCCCGGTAAT (double strand) [5xRE, 6 bp spacing]", "values": [{"measurement": "activity on this sequence", "setting": "[1]; mCerulean reporter, HeLa and HEK293, highest spacing variant in HEK293", "value": "active"}]}
{"sequence": "ATTCTACCGTCTCGGGCCATTAAAGGCATATGATTCTACCGTCTCGGGCCATTAAAGGCATATGATTCTACCGTCTCGGGCCATTAAAGGCATATGATTCTACCGTCTCGGGCCATTAAAGGCATATGATTCTACCGTCTCGGGCCATTA (double strand) [5x scrambled RE, 10 bp spacing]", "values": [{"measurement": "activity on this sequence", "setting": "[1]; no mCerulean expression in HeLa or HEK293, variant of 5xRE, 10 bp spacing", "value": "not active"}]}
{"sequence": "TAAGATGGCAGAGCCCGGTAATTGCGATTAAGATGGCAGAGCCCGGTAATTGCGATTAAGATGGCAGAGCCCGGTAATTGCGATTAAGATGGCAGAGCCCGGTAATTGCGATTAAGATGGCAGAGCCCGGTAATTGCGATTAAGATGGCAGAGCCCGGTAATTGCGATTAAGATGGCAGAGCCCGGTAATTGCGATTAAGATGGCAGAGCCCGGTAATTGCGATTAAGATGGCAGAGCCCGGTAAT (double strand) [9xRE, 6 bp spacing]", "values": [{"measurement": "activity on this sequence", "setting": "[1]; [5]", "value": "active"}]}
{"sequence": "TAAGATGGCAGAGCCCGGTAATTGCGATTAAGATGGCAGAGCCCGGTAATTGCGATTAAGATGGCAGAGCCCGGTAATTGCGATTAAGATGGCAGAGCCCGGTAATTGCGATTAAGATGGCAGAGCCCGGTAATTGCGATTAAGATGGCAGAGCCCGGTAATTGCGATTAAGATGGCAGAGCCCGGTAATTGCGATTAAGATGGCAGAGCCCGGTAATTGCGATTAAGATGGCAGAGCCCGGTAATTGCGATTAAGATGGCAGAGCCCGGTAATTGCGATTAAGATGGCAGAGCCCGGTAAT (double strand) [11xRE, 6 bp spacing]", "values": [{"measurement": "activity on this sequence", "setting": "[1]; mCerulean reporter, maximum signal in HeLa", "value": "active"}]}
{"sequence": "TAAGATGGCAGAGCCCGGTAATTAAGATGGCAGAGCCCGGTAATTAAGATGGCAGAGCCCGGTAATTAAGATGGCAGAGCCCGGTAATTAAGATGGCAGAGCCCGGTAAT (double strand) [5xRE, 0 bp spacing]", "values": [{"measurement": "activity on this sequence", "setting": "[2]", "value": "active"}, {"measurement": "activity on this sequence", "setting": "[3]", "value": "active"}, {"measurement": "activity on this sequence", "setting": "[1]; mCerulean reporter, strongest spacing variant in HeLa", "value": "active"}, {"measurement": "activity on this sequence", "setting": "[4]", "value": "active"}]}
